## Percent effect of library compounds

From ChEMBL document CHEMBL3988442, “University of Dundee, Small-Polar-MMV Screening Library” (2021).

T. brucei: 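Whole-parasite assay of Trypanosoma brucei over 72 hours; the read-out is not stated. Tested at 30 µM. The record gives no direction; compounds that gave an IC50 in retests scored well above the rest, so higher reads as stronger inhibition. Values scatter widely below zero; nearly all retest evidence comes from the higher of the two concentrations used. About 64,000 compounds were tested under these conditions; 1.5% (about 940) showed 50% or more at least once.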
Leishmania in macrophages: 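Cell assay of Leishmania donovani living inside macrophages; the read-out is not stated. Concentration: 30 µM. Higher reads as stronger inhibition (inferred: compounds with an IC50 in retests scored well above the rest). Of about 69,000 compounds tested this way, about 1,000 (1.5%) reached 50% or more in at least one test.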

The filed quantity is “Percent Effect” (%).
The record does not define 0% and 100%; most values in the screen are far below 50% and negative numbers occur (in some assays of this library far below -100).
Compounds were drawn at random from those tested, without regard to their results.
Two or more numbers in one place are separate tests of the same structure; such repeats can differ widely.

{"structure": "CCn1ccnc1CN1CCCN(C(=O)c2csc(C)n2)CC1", "Leishmania in macrophages": 18.39}
{"structure": "COCc1cc(NCCc2ccccn2)n2nccc2n1", "T. brucei": -27.73, "Leishmania in macrophages": 9.87}
{"structure": "CC1(C)CN=C(N2CCN(CC3CCCCO3)CC2)S1", "stereo": "stereo not shown", "T. brucei": -34.37, "Leishmania in macrophages": 4.048}
{"structure": "CCNC(=O)[C@@H]1C[C@H](N)CN1c1cc(C(F)(F)F)nc(N2CCCC2)n1", "T. brucei": -66.38, "Leishmania in macrophages": 23.81}
{"structure": "Cn1cc(-c2cnc(N3CCOCC3)nc2)cc1C(=O)N1CCOCC1", "T. brucei": 27.74, "Leishmania in macrophages": -13.66}
{"structure": "CC(C)(C)n1ccc(C(=O)N2CCCC(c3ccc(C(=O)O)cc3)C2)c1", "stereo": "stereo not shown", "T. brucei": -11.5, "Leishmania in macrophages": 24.79}
{"structure": "[H][C@]12CCC[C@@]1(COCc1ccccn1)CN(C(=O)c1cscn1)C2", "T. brucei": -7.729, "Leishmania in macrophages": 24.81}
{"structure": "Cc1ccc(CN(CCCn2ccnc2)Cc2cnc(N(C)C)nc2)s1.O=C(O)CC(O)(CC(=O)O)C(=O)O", "T. brucei": -19.58, "Leishmania in macrophages": "-1.736 and 17.12"}
{"structure": "[H][C@@]12CS(=O)(=O)C[C@]1([H])N(S(=O)(=O)N1CCCC1)CCN2CC", "T. brucei": -17.04, "Leishmania in macrophages": 8.211}
{"structure": "CC(C)N1CCCC(CNC(=O)CN(C)S(=O)(=O)c2ccccc2)C1", "stereo": "stereo not shown", "T. brucei": -17.43, "Leishmania in macrophages": -11.04}
{"structure": "CC(C)CCC(=O)N(C)CC(=O)Nc1ccc(Br)cn1", "T. brucei": 12, "Leishmania in macrophages": 32.89}
{"structure": "CCC(=O)N1CCc2nc3cc(OC)c(OC)cc3c(=O)n2CC1", "T. brucei": -14.29, "Leishmania in macrophages": -14.29}
{"structure": "CNS(=O)(=O)c1ccccc1N1CCN(C(C)C(N)=O)CC1", "stereo": "stereo not shown", "T. brucei": 1.841, "Leishmania in macrophages": 19.65}
{"structure": "O=C(O)C(F)(F)F.[H][C@@]12COC[C@]1(CNC(=O)C1CC1)CN(Cc1cccc(C)c1)C2", "T. brucei": 3.616, "Leishmania in macrophages": 34.73}
{"structure": "CC(NCc1cnc(N2CCOCC2)nc1)c1ccc(Cl)s1.Cl", "stereo": "stereo not shown", "T. brucei": -101.7, "Leishmania in macrophages": 3.788}
{"structure": "CCC(=O)NCC(=O)NC(C)c1sc(-c2ccccc2F)nc1C", "stereo": "stereo not shown", "T. brucei": -16.35, "Leishmania in macrophages": 52.49}
{"structure": "Cc1nc(C(NS(=O)(=O)N(C)C)c2ccccc2F)no1", "stereo": "stereo not shown", "T. brucei": -61.17, "Leishmania in macrophages": 9.062}
{"structure": "O=C(O)C(F)(F)F.[H][C@@]12COC[C@@H](C(=O)N3CCCCO3)[C@]1([H])CN(Cc1cc(C)on1)C2", "T. brucei": -250.7, "Leishmania in macrophages": 11.94}
{"structure": "CC(CC(F)(F)F)NCc1ccccc1-n1ccnc1", "stereo": "stereo not shown", "T. brucei": -6.52, "Leishmania in macrophages": 17.53}
{"structure": "C=C(C)COc1cccc(C(=O)N2CCC(O)(c3ccccc3)CC2)c1", "Leishmania in macrophages": -54.54}
{"structure": "CCOC(C)c1noc(CN2CCN(Cc3ccno3)CC2)n1", "stereo": "stereo not shown", "T. brucei": -17.76, "Leishmania in macrophages": -11.32}
{"structure": "CC(=O)c1cccc(CN2CCCC23CCN(c2ccccn2)CC3)c1", "T. brucei": 17.88, "Leishmania in macrophages": 6.453}
{"structure": "Cc1nccn1CCCNC(=O)C1CCCCN1Cc1ccncc1", "stereo": "stereo not shown", "T. brucei": -29.17, "Leishmania in macrophages": 13.7}
{"structure": "CN(Cc1nnc(C2CC2)n1C)C1CCN(Cc2ccccc2F)C1", "stereo": "stereo not shown", "T. brucei": 15.27, "Leishmania in macrophages": 24.79}
{"structure": "Cc1oc(-c2ccco2)nc1CC(=O)N1CCC(CCO)C1", "stereo": "stereo not shown", "T. brucei": 9.929, "Leishmania in macrophages": 18.96}
{"structure": "CC(C)n1ccnc1C1CCN(C(=O)c2ccccn2)CC1", "T. brucei": -19.49, "Leishmania in macrophages": 9.013}
{"structure": "Cc1nn(C)c(C)c1C1CCCN1C(=O)c1cc(C(N)=O)cs1", "stereo": "stereo not shown", "T. brucei": -36.14, "Leishmania in macrophages": -11.64}
{"structure": "CS(=O)(=O)NCC1CCCN(c2ccc(C#N)cn2)C1", "stereo": "stereo not shown", "T. brucei": -19.86, "Leishmania in macrophages": -8.19}
{"structure": "[H][C@@]12CN(c3nc(C)cnc3C)C[C@]1([H])N(Cc1ccccc1OC)C(=O)O2", "T. brucei": -5.562, "Leishmania in macrophages": 24.31}
{"structure": "CCc1cnc(C)nc1NCCN1CCCCCC1", "T. brucei": -23.67, "Leishmania in macrophages": 29.67}
{"structure": "CC(C)N1CCC2(CC1)CC(CC(N)=O)c1ccc(F)cc12.O=C(O)C(F)(F)F", "stereo": "stereo not shown", "T. brucei": -17.26, "Leishmania in macrophages": 49.95}
{"structure": "Cl.Oc1cc(C2CCNCC2)nc(-c2ccsc2)n1", "Leishmania in macrophages": 26.4}
{"structure": "CC(C)(C)Nc1nc(-c2cccnc2)c(-c2ccnc(NCCO)n2)s1", "T. brucei": 94.16, "Leishmania in macrophages": "-24.75 and -3.747"}
{"structure": "Cc1nc2c(N(C)Cc3ccnn3C)nc(N)nc2n1C", "Leishmania in macrophages": -1.231}
{"structure": "CCCc1nc(N(C)Cc2ccco2)c2c(n1)c(C)nn2CC", "T. brucei": -38.15, "Leishmania in macrophages": 29.01}
{"structure": "COc1cccc(C2CCCN2CCCNS(C)(=O)=O)c1", "stereo": "stereo not shown", "Leishmania in macrophages": 26.84}
{"structure": "Cc1cccnc1NC(=O)NC(CCO)C(C)(C)C", "stereo": "stereo not shown", "T. brucei": -14.85, "Leishmania in macrophages": 5.222}
{"structure": "CC(C)OCc1nn(C)c2c1CCN(CC1CC1)C2.O=C(O)C(F)(F)F", "T. brucei": -52.36, "Leishmania in macrophages": 9.82}
{"structure": "CCc1[nH]ncc1C(=O)N1CCCC(n2nc(C)nc2C)C1", "stereo": "stereo not shown", "T. brucei": -11.39, "Leishmania in macrophages": -12.05}
{"structure": "Cn1cnc2c1C(C(=O)N1CCCC1)N(CC1CC1)CC2.O=C(O)C(F)(F)F", "stereo": "stereo not shown", "T. brucei": -28.14, "Leishmania in macrophages": 13.57}
{"structure": "CCn1c(C2CCN(C(=O)CCc3cc(Cl)no3)CC2)nn(C)c1=O", "T. brucei": -18.26, "Leishmania in macrophages": 10.84}
{"structure": "Nc1ccc(CC2COc3ccccc3C2)cn1", "stereo": "stereo not shown", "T. brucei": -0.9577, "Leishmania in macrophages": 14.1}
{"structure": "COc1ccc(-c2cc(C(=O)NCCC(C)C)n(C)n2)cc1", "T. brucei": 4.358, "Leishmania in macrophages": 35}

For reference, 3 entries once more:

| structure | T. brucei | Leishmania in macrophages |
|---|---|---|
| `COCc1cc(NCCc2ccccn2)n2nccc2n1` | -27.73% | 9.87% |
| `CC(C)n1ccnc1C1CCN(C(=O)c2ccccn2)CC1` | -19.49% | 9.013% |
| `CC(C)N1CCC2(CC1)CC(CC(N)=O)c1ccc(F)cc12.O=C(O)C(F)(F)F` (stereo not shown) | -17.26% | 49.95% |